The subject of this assay is KU812. The assay can be described thus: CCK8 antiproliferative assay, KU812. It is filed as cell-based. As to conditions: Homo sapiens, KU812, 48 h, read-out: Antiproliferative activity (IC50/μM) KU812.

With `O=C(CCCCCCC(=O)Nc1ccccc1)NO` [SAHA, vorinostat, reference compound], the IC50 was found to be 1 ± 0.11 µM.
